Data taken from article PMC6789044.
No constants are given. Whether binding was seen depends on the method and setting. In cells and extracts the contact can be indirect. Some entries that bind do so weakly or less than the wild type. For some assays here: Where a sequence is shown, tags or fusion partners need not be part of it.

By UniProt entry, the sequences of proteins in these tests, tags left out. Residues count along the entry.
UniProt O00206, residues 24-839: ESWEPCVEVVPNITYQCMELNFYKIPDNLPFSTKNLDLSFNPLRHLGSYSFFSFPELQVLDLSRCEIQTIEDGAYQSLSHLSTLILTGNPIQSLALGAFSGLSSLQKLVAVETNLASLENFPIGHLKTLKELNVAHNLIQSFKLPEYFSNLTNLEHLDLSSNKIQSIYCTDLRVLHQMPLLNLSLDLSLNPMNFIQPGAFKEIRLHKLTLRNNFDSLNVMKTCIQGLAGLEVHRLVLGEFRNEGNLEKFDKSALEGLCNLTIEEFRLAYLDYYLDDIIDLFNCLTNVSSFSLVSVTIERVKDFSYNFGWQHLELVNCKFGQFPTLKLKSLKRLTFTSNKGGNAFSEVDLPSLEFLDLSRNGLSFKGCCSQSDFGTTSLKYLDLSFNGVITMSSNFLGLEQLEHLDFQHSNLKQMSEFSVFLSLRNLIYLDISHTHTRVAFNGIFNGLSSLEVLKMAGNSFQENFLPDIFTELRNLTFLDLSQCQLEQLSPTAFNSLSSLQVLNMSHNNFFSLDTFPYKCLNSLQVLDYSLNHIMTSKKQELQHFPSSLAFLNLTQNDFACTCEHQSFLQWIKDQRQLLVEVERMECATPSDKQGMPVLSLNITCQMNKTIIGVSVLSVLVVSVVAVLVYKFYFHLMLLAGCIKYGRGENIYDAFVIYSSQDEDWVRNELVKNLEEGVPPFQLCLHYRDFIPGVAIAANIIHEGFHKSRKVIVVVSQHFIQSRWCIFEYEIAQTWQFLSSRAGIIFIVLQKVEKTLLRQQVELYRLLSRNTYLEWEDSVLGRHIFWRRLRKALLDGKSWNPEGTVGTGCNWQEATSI
UniProt O15455, residues 24-904: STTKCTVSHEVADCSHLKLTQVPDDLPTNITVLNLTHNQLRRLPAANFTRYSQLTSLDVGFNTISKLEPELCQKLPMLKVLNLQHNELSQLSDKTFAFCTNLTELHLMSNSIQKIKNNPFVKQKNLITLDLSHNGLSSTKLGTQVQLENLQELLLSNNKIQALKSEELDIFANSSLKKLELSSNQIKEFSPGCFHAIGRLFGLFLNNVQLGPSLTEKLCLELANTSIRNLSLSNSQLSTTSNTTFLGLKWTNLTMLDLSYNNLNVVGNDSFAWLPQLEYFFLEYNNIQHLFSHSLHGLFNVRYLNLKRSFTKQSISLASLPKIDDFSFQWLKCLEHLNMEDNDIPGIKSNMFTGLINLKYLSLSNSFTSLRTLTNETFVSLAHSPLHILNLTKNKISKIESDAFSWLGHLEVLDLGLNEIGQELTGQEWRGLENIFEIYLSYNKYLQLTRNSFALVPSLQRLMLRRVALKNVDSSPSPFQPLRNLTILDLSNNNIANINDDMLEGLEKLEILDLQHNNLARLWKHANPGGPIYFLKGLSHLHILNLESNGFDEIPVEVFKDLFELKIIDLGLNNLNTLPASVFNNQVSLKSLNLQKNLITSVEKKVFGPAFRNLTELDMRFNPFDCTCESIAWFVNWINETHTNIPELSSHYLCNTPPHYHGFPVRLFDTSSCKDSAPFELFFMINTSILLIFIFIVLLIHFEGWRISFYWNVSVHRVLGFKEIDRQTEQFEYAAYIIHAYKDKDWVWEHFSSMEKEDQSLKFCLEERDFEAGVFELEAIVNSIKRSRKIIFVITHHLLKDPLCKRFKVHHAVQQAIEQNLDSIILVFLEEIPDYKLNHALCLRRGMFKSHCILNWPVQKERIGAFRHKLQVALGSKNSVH
UniProt P09731, residues 18-225: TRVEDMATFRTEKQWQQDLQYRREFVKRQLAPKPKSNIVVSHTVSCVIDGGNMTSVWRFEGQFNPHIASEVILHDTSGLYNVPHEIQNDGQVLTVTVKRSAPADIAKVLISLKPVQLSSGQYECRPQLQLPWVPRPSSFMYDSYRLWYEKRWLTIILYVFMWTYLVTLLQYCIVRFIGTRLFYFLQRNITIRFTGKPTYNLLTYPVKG
UniProt P09727, residues 18-215: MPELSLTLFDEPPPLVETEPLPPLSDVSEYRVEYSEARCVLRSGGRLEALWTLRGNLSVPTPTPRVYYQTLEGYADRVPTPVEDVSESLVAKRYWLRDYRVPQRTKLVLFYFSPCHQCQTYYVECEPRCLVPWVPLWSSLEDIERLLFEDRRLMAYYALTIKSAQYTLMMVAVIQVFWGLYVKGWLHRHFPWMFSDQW
UniProt P09730, residues 22-227: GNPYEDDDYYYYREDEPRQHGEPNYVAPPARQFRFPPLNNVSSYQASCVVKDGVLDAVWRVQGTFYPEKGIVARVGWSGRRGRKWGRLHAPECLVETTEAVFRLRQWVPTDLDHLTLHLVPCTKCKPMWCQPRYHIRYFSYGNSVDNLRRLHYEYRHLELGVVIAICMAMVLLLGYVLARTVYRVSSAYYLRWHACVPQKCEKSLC
UniProt P60468: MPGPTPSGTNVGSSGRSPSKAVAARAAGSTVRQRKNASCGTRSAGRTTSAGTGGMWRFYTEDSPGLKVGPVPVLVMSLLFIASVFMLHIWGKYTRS

B1: UNC93B1-GFP (protein, UniProt Q9H1C4 1-597)
chain: MEAEPPLYPMAGAAGPQGDEDLLGVPDGPEAPLDELVGAYPNYNEEEEERRYYRRKRLGVLKNVLAASAGGMLTYGVYLGLLQMQLILHYDETYREVKYGNMGLPDIDSKMLMGINVTPIAALLYTPVLIRFFGTKWMMFLAVGIYALFVSTNYWERYYTLVPSAVALGMAIVPLWASMGNYITRMAQKYHEYSHYKEQDGQGMKQRPPRGSHAPYLLVFQAIFYSFFHLSFACAQLPMIYFLNHYLYDLNHTLYNVQSCGTNSHGILSGFNKTVLRTLPRSGNLIVVESVLMAVAFLAMLLVLGLCGAAYRPTEEIDLRSVGWGNIFQLPFKHVRDYRLRHLVPFFIYSGFEVLFACTGIALGYGVCSVGLERLAYLLVAYSLGASAASLLGLLGLWLPRPVPLVAGAGVHLLLTFILFFWAPVPRVLQHSWILYVAAALWGVGSALNKTGLSTLLGILYEDKERQDFIFTIYHWWQAVAIFTVYLGSSLHMKAKLAVLLVTLVAAAVSYLRMEQKLRRGVAPRQPRIPRPQHKVRGYRYLEEDNSDESDAEGEHGDGAEEEAPPAGPRPGPEPAGLGRRPCPYEQAQGGDGPEEQ

Key:
[1] = molecular target: T1, endogenous Derlin-1 (human (endogenous in HEK 293T)) (UniProt Q9BUN8); experiment: co-IP; lysis in 1% digitonin, washes 0.1% digitonin; HEK 293T lysates immunoprecipitated with anti-HA and anti-Derlin-1, blotted with anti-Sec61β, anti-Derlin-1 or anti-HA (Fig. 3c); cells and antibodies of Supplementary Figs 3d and 6b not shown
T1 sequence: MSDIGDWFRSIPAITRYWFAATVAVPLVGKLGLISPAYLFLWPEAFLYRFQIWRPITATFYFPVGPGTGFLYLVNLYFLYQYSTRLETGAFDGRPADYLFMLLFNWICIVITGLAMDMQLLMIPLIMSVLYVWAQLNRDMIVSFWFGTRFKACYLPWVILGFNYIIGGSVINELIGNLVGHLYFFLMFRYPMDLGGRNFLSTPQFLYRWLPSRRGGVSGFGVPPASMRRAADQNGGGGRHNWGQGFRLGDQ

[2] = molecular target: endogenous TLR4 (human (endogenous in HeLa)) (UniProt O00206); experiment: co-IP; HeLa transfected with HA-US7 (20 μM MG132, 4 h) or HA-US8 (100 μM chloroquine, 4 h); lysis in 1% NP-40; immunoprecipitated with anti-TLR3 or anti-TLR4, blotted with anti-HA; washes 0.1% NP-40
[3] = molecular target: endogenous TLR3 (human (endogenous in HeLa)) (UniProt O15455); experiment: as above
[4] = molecular target: T2, UNC93B1-GFP (UniProt Q9H1C4); experiment: co-IP; HeLa expressing UNC93B1-GFP transfected with HA-US8; lysis in 1% NP-40; samples heated without boiling
T2 sequence: B1 chain

[5] = molecular target: HA-tagged HCMV US7 (human cytomegalovirus (HCMV)) (UniProt P09731); experiment: co-IP; lysis in 1% digitonin, washes 0.1% digitonin; HEK 293T lysates immunoprecipitated with anti-HA and anti-Derlin-1, blotted with anti-Sec61β, anti-Derlin-1 or anti-HA (Fig. 3c); cells and antibodies of Supplementary Figs 3d and 6b not shown
[6] = molecular target: T3, HA-US2 (human cytomegalovirus (HCMV)) (UniProt P09713); experiment: as above
T3 sequence: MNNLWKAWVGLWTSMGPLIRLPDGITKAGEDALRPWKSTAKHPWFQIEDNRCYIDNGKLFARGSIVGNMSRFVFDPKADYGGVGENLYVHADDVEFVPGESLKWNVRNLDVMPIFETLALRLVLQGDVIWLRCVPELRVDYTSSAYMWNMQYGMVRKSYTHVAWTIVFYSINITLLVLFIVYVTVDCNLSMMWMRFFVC

[7] = molecular target: GFP-US7 (human cytomegalovirus (HCMV)) (UniProt P09731); experiment: as above
[8] = molecular target: Myc-tagged TLR3 (UniProt O15455); experiment: co-IP; TLR3-Myc-expressing HeLa transfected with UNC93B1-GFP and empty vector or HA-US8, 100 μM chloroquine; immunoprecipitated with anti-Myc, blotted with anti-GFP

Row | Molecule | binding [1] | binding [2] | binding [3] | other results
1 | HA-US11 (from UniProt P09727 18-215) | binds | – | – | –
2 | HA-tagged HCMV US7 (from UniProt P09731 18-225) | binds | binds | binds | –
3 | HA-tagged HCMV US8 (from UniProt P09730 22-227) | – | binds | binds | binding [4]: binds
4 | endogenous Sec61β (from UniProt P60468 1-96) | – | – | – | binding [5]: binds; binding [6]: binds; binding [7]: binds
5 | B1 | – | – | – | binding [8]: binds
